Assay results: patent publication US11252962B2, “Cyclopropylpyridyl group-containing benzimidazole compound or salt thereof, agricultural and horticultural insecticide comprising the compound or the salt, and method for using the insecticide” (NIHON NOHYAKU CO., LTD., priority 2017, dated 2022)
Some entries share one result that the patent states for a list of compounds.

Tested on: Dirofilaria immitis
Assay: Parasiticidal test on Dirofilaria immitis (larval motility)
Conditions: 50 ppm, L1 stage larvae, 96-well plates, 37° C., 72 hours

SMILES: CCS(=O)(=O)c1cc(C2CC2)cnc1-c1nc2cc(SC(F)(F)F)ccc2n1C [Compound 1-3, 2-(3-ethylsulfonyl-5-cyclopropylpyridin-2-yl)-1-methyl-5-(trifluoromethylthio)benzimidazole]
- percent inhibition in motility: ≥ 50%
